Taken from: PubChem BioAssay AID1259254 (NCATS, 2017)
The deposit covers about 59,000 reagents; shown is an unselected part. About 1,550 of them (2.6%) count as active. 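G2 share is only a proxy for re-replication; each gene was hit by three separate siRNAs, and active genes were retested.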 The numbers tell different reagents against one gene apart. Not all columns of the deposit are shown. Not given: the amount of reagent.

- Purpose: 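Genome-wide screen for genes that prevent DNA re-replication in cancer cells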 (primary screen)
- Cell system: human HCT116 colorectal cancer cells
- Reagents: single siRNA against human genes
- Duration: 3 days
- Measurement: 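Nuclei stained with Hoechst and imaged; cell-cycle phase assigned by DNA content; G2 share scaled per plate, non-targeting siRNA 0%, GMNN siRNA 100%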
- Scale: G2 robust z-score: higher = more G2 cells, more excess DNA replication
- Call rule: 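Active siRNAs have a G2 robust z of 5 or more median absolute deviations over the median, which in these data means about 38% or higher of GMNN control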

| target gene | reagent | G2 robust z-score | call |
| --- | --- | --- | --- |
| SND1-IT1 | 1 | -0.659 | inactive |
| SND1-IT1 | 2 | -0.791 | inactive |
| SND1-IT1 | 3 | -0.118 | inactive |
| OIP5 | 1 | 7.37 | active |
| OIP5 | 2 | 0.0628 | inactive |
| OIP5 | 3 | -0.216 | inactive |
| SSUH2 | 1 | -0.471 | inactive |
| SSUH2 | 2 | 0.00139 | inactive |
| SSUH2 | 3 | 0.267 | inactive |
| PLEC | 1 | 0.985 | inactive |
| PLEC | 2 | -1.01 | inactive |
| PLEC | 3 | 5.09 | active |
| H1-9P | 1 | 2.22 | inactive |
| H1-9P | 2 | -1.03 | inactive |
| H1-9P | 3 | -0.323 | inactive |
| CBLB | 1 | -1.13 | inactive |
| CBLB | 2 | 0.701 | inactive |
| CBLB | 3 | 0.075 | inactive |
| SIT1 | 1 | -0.475 | inactive |
| SIT1 | 2 | -0.2 | inactive |
| SIT1 | 3 | -0.113 | inactive |
| TEX55 | 1 | 1.44 | inactive |
| TEX55 | 2 | 0.405 | inactive |
| TEX55 | 3 | 2.85 | inactive |
| RUSC1 | 1 | -0.902 | inactive |
| RUSC1 | 2 | -0.299 | inactive |
| RUSC1 | 3 | -0.313 | inactive |
| COG3 | 1 | 0.811 | inactive |
| COG3 | 2 | -0.646 | inactive |
| COG3 | 3 | 0.589 | inactive |
| HLA-DPB1 | 1 | -0.825 | inactive |
| HLA-DPB1 | 2 | -0.479 | inactive |
| HLA-DPB1 | 3 | 0.483 | inactive |
| MIOS | 1 | -0.774 | inactive |
| MIOS | 2 | -1.21 | inactive |
| MIOS | 3 | 2.92 | inactive |
| PALMD | 1 | 0.348 | inactive |
| PALMD | 2 | 3.44 | inactive |
| PALMD | 3 | -0.000749 | inactive |
| HMOX1 | 1 | 2.28 | inactive |
| HMOX1 | 2 | -1.6 | inactive |
| HMOX1 | 3 | 0.677 | inactive |
| SPINK7 | 1 | 1.53 | inactive |
| SPINK7 | 2 | 1.09 | inactive |
| SPINK7 | 3 | -0.469 | inactive |
| TIPIN | 1 | -0.436 | inactive |
| TIPIN | 2 | -0.5 | inactive |
| TIPIN | 3 | -0.711 | inactive |
| CLTCL1 | 1 | 1.77 | inactive |
| CLTCL1 | 2 | 3.96 | inactive |
| CLTCL1 | 3 | 0.198 | inactive |
| VGLL3 | 1 | -0.886 | inactive |
| VGLL3 | 2 | 1.08 | inactive |
| VGLL3 | 3 | 4.01 | inactive |
| FBXO41 | 1 | -0.459 | inactive |
| FBXO41 | 2 | 0.228 | inactive |
| FBXO41 | 3 | -0.945 | inactive |
| SPATA2L | 1 | -0.942 | inactive |
| SPATA2L | 2 | 0.535 | inactive |
| SPATA2L | 3 | -0.713 | inactive |
| TNPO3 | 1 | 0.0146 | inactive |
| TNPO3 | 2 | 0.21 | inactive |
| TNPO3 | 3 | -0.175 | inactive |
| MRPL36 | 1 | 4.77 | inactive |
| MRPL36 | 2 | 0.569 | inactive |
| MRPL36 | 3 | 6.81 | active |
| RAB11B | 1 | 1.98 | inactive |
| RAB11B | 2 | 3.56 | inactive |
| RAB11B | 3 | 1.37 | inactive |

8 neighbouring entries from above:
| target gene | reagent | G2 robust z-score | call |
| --- | --- | --- | --- |
| SPINK7 | 1 | 1.53 | inactive |
| SPINK7 | 2 | 1.09 | inactive |
| SPINK7 | 3 | -0.469 | inactive |
| TIPIN | 1 | -0.436 | inactive |
| TIPIN | 2 | -0.5 | inactive |
| TIPIN | 3 | -0.711 | inactive |
| CLTCL1 | 1 | 1.77 | inactive |
| CLTCL1 | 2 | 3.96 | inactive |
